Reference: the supplement of paper PMC12889115
The other results are listed elsewhere or left out. These are raw signals, not scaled to a control.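 Primary screen: polymyxin B was added at a level permeabilizing Salmonella outer membranes while sparing inner membranes. DMSO wells, both with and without polymyxin B, established maximum growth. Plate-to-plate variation meant each plate was ranked on its own, and the lowest-OD600 compounds were selected as hits.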

System: Salmonella enterica serovar Typhimurium SL1344
Assay: bacterial growth OD600 after 18 h with compound and polymyxin B; higher = more bacterial growth (less inhibition)
Conditions: 50 µM, Mueller-Hinton broth

Row | SMILES | bacterial growth OD600 (polymyxin B 0.75 µg/mL) | bacterial growth OD600 (polymyxin B 1 µg/mL)
1 | CCC(C)NC(=O)c1coc(COc2cccc(F)c2)n1 (stereo unspecified) | 0.817 | 
2 | NC(=O)C1CCCN(C(=O)c2coc(CN3CCN(c4ccccc4F)CC3)n2)C1 (stereo unspecified) | 0.875 | 
3 | NC(=O)C1CCCN(Cc2cn(Cc3ccccc3)nc2-c2ccc3c(c2)OCO3)C1 (stereo unspecified) | 0.834 | 
4 | CN(C(=O)CSc1ccccn1)C1CCCN(C2Cc3ccccc3C2)C1 (stereo unspecified) |  | 0.809
5 | OC(CCc1ccccc1)c1ccc2c(c1)CN(Cc1cccc3c1OCO3)CCO2 (stereo unspecified) | 0.003 | 
6 | CC1=C(C(=O)N2CCC(C3CCN(Cc4cccnc4)CC3)C2)OCCO1 (stereo unspecified) | 0.823 | 
7 | CC(C)OCCNc1nc2nonc2nc1NC1CCCC1 |  | 0.816
8 | Cc1ccc(S(=O)(=O)N2CCC(CO)(Cc3cccc(C(F)(F)F)c3)CC2)s1 |  | 0.014
9 | CC(=O)N1CCN(c2ncccc2CNC(=O)CC2=CCCCC2)CC1 | 0.842 | 
10 | COc1cc(CNC2CCCCCCC2)ccc1OCC(O)CN1CCSCC1 (stereo unspecified) |  | 0.899
11 | CC(C)N(C)C(=O)CC(c1ccc(O)cc1)c1cccc(O)c1 (stereo unspecified) |  | 0.247
12 | C=CCS(=O)(=O)NCc1nc(NCCCc2ccccc2)c2ccccc2n1 | 0.775 | 
13 | COc1ccc(CC2(CCC(=O)N(C)CC3Cc4ccccc4O3)CCC(=O)N2)c2ccccc12 (stereo unspecified) | 0.823 | 
14 | Cc1cc(-c2nn(-c3ccccc3F)cc2CN[C@H]2CCCCNC2=O)c(C)s1 |  | 0.588
15 | CN(CC(=O)NC1CCCN(Cc2ccc(Cl)cc2)C1)Cc1cccnc1 (stereo unspecified) |  | 1.1
16 | CCCC(=O)N1CCCC1C(=O)Nc1ccccc1Oc1cccnc1 (stereo unspecified) | 1.02 | 
17 | C=CCCC(=O)N1CCCC(CCc2ccccc2)C1 (stereo unspecified) | 0.545 | 
18 | CCNC(=O)c1cn(CC(C)C)cc(C(=O)NCC(C)c2ccccc2)c1=O (stereo unspecified) | 0.754 | 
19 | CCn1cc(CNC2CCCc3nc(N4CCC(CO)CC4)ncc32)cn1 (stereo unspecified) | 0.723 | 
20 | Cc1cnc(C(=O)N2CCc3c([nH]c4ccccc34)C2c2ccc(F)cc2)cn1 (stereo unspecified) |  | 0.027
21 | Cc1nc(N2CCCCCCC2)ncc1C(C)NC1CCSCC1 (stereo unspecified) |  | 0.015

2 compounds picked at random from those above, as already listed:
Row | SMILES | bacterial growth OD600 (polymyxin B 0.75 µg/mL) | bacterial growth OD600 (polymyxin B 1 µg/mL)
9 | CC(=O)N1CCN(c2ncccc2CNC(=O)CC2=CCCCC2)CC1 | 0.842 | 
11 | CC(C)N(C)C(=O)CC(c1ccc(O)cc1)c1cccc(O)c1 (stereo unspecified) |  | 0.247
